The list shows a part of the results.
target: OsWRKY34 (Oryza sativa, UniProt Q0JBA9 1-250); assay: protein-binding microarray (RPBM); PBS, 2% BSA, 51.3 ng/ul salmon testes DNA, 50 uM zinc acetate, 200 nM TF, 25 C, 1 h; high values mean tight binding; conditions: protein: recombinant; tags: N-terminal polyhistidine and DsRed monomer fusion (pET32a); label: CyDye5-dUTP incorporated in the synthesized complementary strand; 3' TTTTT single-stranded linker to array surface; dsDNA, one strand shown
Method in brief: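 A custom Agilent array was converted to double-stranded form by primer extension with Cy5-dUTP and blocked with 2% BSA. Protein at 200 nM in PBS with 2% BSA, salmon testes DNA and 50 µM zinc acetate was applied for 1 h at 25 °C, followed by washing. The proteins were polyhistidine–DsRed N-terminal fusions of transcription factors, expressed in E. coli BL21-CodonPlus and Ni–NTA-purified. The binding signal is per-feature fluorescence intensity (arbitrary units) from an Axon 4000B scanner.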

Chains of the proteins cited; added tags and fusions are not shown.
UniProt Q0JBA9, entry or part of it: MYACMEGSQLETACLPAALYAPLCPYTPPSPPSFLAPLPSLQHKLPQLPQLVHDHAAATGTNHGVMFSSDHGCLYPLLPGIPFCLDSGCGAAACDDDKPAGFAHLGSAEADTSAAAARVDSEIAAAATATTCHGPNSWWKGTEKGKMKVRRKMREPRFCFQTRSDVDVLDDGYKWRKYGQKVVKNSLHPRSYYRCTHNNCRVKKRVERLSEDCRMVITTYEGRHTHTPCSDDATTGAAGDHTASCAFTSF

Row | Sequence | binding signal
1 | TCGTCGCCTGGGTCGCCGTCTCGCTTGGATTCTTCGCGTCCGGAGTCACCTAGTGCAG | 12900 fluorescence intensity (a.u.)
2 | TGCTTACATGGTGTGTTCCTAATCGAATTTATTTTCTTTACGGAGTCACCTAGTGCAG | 9710 fluorescence intensity (a.u.)
3 | CGGAAGGTGTGTTTATTCAGTTAGTTCAGCGTTTGCCCTGCGGAGTCACCTAGTGCAG | 8150 fluorescence intensity (a.u.)
4 | TTTCCTTGCCGTCGCTGCACTTGTTTTATCCAAGACTAATCGGAGTCACCTAGTGCAG | 12000 fluorescence intensity (a.u.)
5 | CGCACGCCTCACACTATCCCCACTCCACTCTCCCATCACTCGGAGTCACCTAGTGCAG | 8240 fluorescence intensity (a.u.)
6 | GTTGCACGACTTATCAACGTGTTATGTACTTATGTGCCATCGGAGTCACCTAGTGCAG | 8590 fluorescence intensity (a.u.)
7 | CGCTCCACTCTTTTAGTTTGTATCTGTGTCTACTCCACTCCGGAGTCACCTAGTGCAG | 11500 fluorescence intensity (a.u.)
8 | CCCACATCGCTCCGCGTCATTAGATTTAGCACTTTATCTTCGGAGTCACCTAGTGCAG | 8030 fluorescence intensity (a.u.)
9 | AACGACGACGAGCAGCAGCAGCAGCAGCACCACCACCACCCGGAGTCACCTAGTGCAG | 8340 fluorescence intensity (a.u.)
10 | ACCCTGGAAATCATGGCTAGATAATCTGTAATTTGTTCTTCGGAGTCACCTAGTGCAG | 9390 fluorescence intensity (a.u.)
11 | ACTCTAAATTTTAGTTCACCAAATCCTTTCGAAATTTCACCGGAGTCACCTAGTGCAG | 8400 fluorescence intensity (a.u.)
12 | GAGATCGAGGTCTCGAGGTCGTTGGTTGGTTGGTTGCATGCGGAGTCACCTAGTGCAG | 9770 fluorescence intensity (a.u.)
13 | ACTCTATACATGTGTCTAAATATTTGATACGATATTTTTTCGGAGTCACCTAGTGCAG | 9050 fluorescence intensity (a.u.)
14 | TATTGTGAATTTGTGATCCTTACCTTTACATTTGAGTTATCGGAGTCACCTAGTGCAG | 8980 fluorescence intensity (a.u.)
15 | GAACGCGCCCCGGTCTCCTCTGCATTGCAACCACCTGAAACGGAGTCACCTAGTGCAG | 10400 fluorescence intensity (a.u.)
16 | CGGTGGTGGTAATTTGAGCTTGCTTTGAACTTTGAAAAGTCGGAGTCACCTAGTGCAG | 9020 fluorescence intensity (a.u.)
17 | TTCCTATGGTATTTACGTCGTGGGGTAGTTTTGACAAGGGCGGAGTCACCTAGTGCAG | 10700 fluorescence intensity (a.u.)
18 | GTAGCTCTCTTCTTGGTCCGATCTCGTCTCTCCCGGCATGCGGAGTCACCTAGTGCAG | 13600 fluorescence intensity (a.u.)
19 | ATTAATTAGCTGCTGCTGTCGTTTCATTTTTTCTTCTTTCCGGAGTCACCTAGTGCAG | 11900 fluorescence intensity (a.u.)
20 | CAACACACACAAACTTCCAACATTTTCATCATATCGTTTTCGGAGTCACCTAGTGCAG | 8160 fluorescence intensity (a.u.)
21 | ATGGGGTTTAAGTAAATTTCCTTTTGACAGGGATCTGCTCCGGAGTCACCTAGTGCAG | 8430 fluorescence intensity (a.u.)

Another view of part of the listing above:
Row	Sequence	binding signal
1	TCGTCGCCTGGGTCGCCGTCTCGCTTGGATTCTTCGCGTCCGGAGTCACCTAGTGCAG	12900 fluorescence intensity (a.u.)
2	TGCTTACATGGTGTGTTCCTAATCGAATTTATTTTCTTTACGGAGTCACCTAGTGCAG	9710 fluorescence intensity (a.u.)
3	CGGAAGGTGTGTTTATTCAGTTAGTTCAGCGTTTGCCCTGCGGAGTCACCTAGTGCAG	8150 fluorescence intensity (a.u.)
4	TTTCCTTGCCGTCGCTGCACTTGTTTTATCCAAGACTAATCGGAGTCACCTAGTGCAG	12000 fluorescence intensity (a.u.)
5	CGCACGCCTCACACTATCCCCACTCCACTCTCCCATCACTCGGAGTCACCTAGTGCAG	8240 fluorescence intensity (a.u.)
6	GTTGCACGACTTATCAACGTGTTATGTACTTATGTGCCATCGGAGTCACCTAGTGCAG	8590 fluorescence intensity (a.u.)
7	CGCTCCACTCTTTTAGTTTGTATCTGTGTCTACTCCACTCCGGAGTCACCTAGTGCAG	11500 fluorescence intensity (a.u.)
8	CCCACATCGCTCCGCGTCATTAGATTTAGCACTTTATCTTCGGAGTCACCTAGTGCAG	8030 fluorescence intensity (a.u.)

Next results.

Row | Sequence | binding signal
22 | AGTTCCCACATGCTGCTAAATTTTCTCGGAAATTTTTATTCGGAGTCACCTAGTGCAG | 10000 fluorescence intensity (a.u.)
23 | ACACTTCACTGTGTCCTTCAGCTGTATCCCAGAAGTTACTCGGAGTCACCTAGTGCAG | 9120 fluorescence intensity (a.u.)
24 | TTAATCCCACATATCATATACACATTGCGTCTTGTAGTCTCGGAGTCACCTAGTGCAG | 11000 fluorescence intensity (a.u.)
25 | TGCTATATCTCACTCGAAAGATTTTTTCTTATCTCTCACTCGGAGTCACCTAGTGCAG | 8440 fluorescence intensity (a.u.)
26 | ACCTGCTGTGCGCACCGCCCTGCGTTCCTTTGCTTCACCACGGAGTCACCTAGTGCAG | 10300 fluorescence intensity (a.u.)
27 | ACATGTAACGTTTGTTCAAGCAATTATACTACTACCATAGCGGAGTCACCTAGTGCAG | 8290 fluorescence intensity (a.u.)
28 | TTATTCTGTTCATCCACCGGTTTTATCACAACTTGCTAAACGGAGTCACCTAGTGCAG | 10600 fluorescence intensity (a.u.)
29 | GCCATTGAAACCGCCGAGGGACCTAATATGCACCGGTTTTCGGAGTCACCTAGTGCAG | 8280 fluorescence intensity (a.u.)
30 | ATCGAACCTTATCTCCTTCTCTCTCGTCGCTTTCTGCGTCCGGAGTCACCTAGTGCAG | 8730 fluorescence intensity (a.u.)
31 | AAATCTTACATAGCCCACGTTGACTAACCCCGTGTTGAGACGGAGTCACCTAGTGCAG | 8920 fluorescence intensity (a.u.)
32 | GCCCATGTACGATGACGTGTACCCTATTGTCTTCTACTAGCGGAGTCACCTAGTGCAG | 8170 fluorescence intensity (a.u.)
33 | CCCTTCATCTCGCCGCCGCCGCCTCACTCGTCTCGTGCCCCGGAGTCACCTAGTGCAG | 9620 fluorescence intensity (a.u.)
34 | CAAGGTCCTAGTACTATTTCGTATGCTACGGTTTTTCCTGCGGAGTCACCTAGTGCAG | 9310 fluorescence intensity (a.u.)
35 | CCTTTAAGTCTATATCTCTCTCATCCGATTCCTATGTTTTCGGAGTCACCTAGTGCAG | 11200 fluorescence intensity (a.u.)
36 | TATTTCATTGTTTGTGATTTCTTTTTTGGCTTTTAATACACGGAGTCACCTAGTGCAG | 13800 fluorescence intensity (a.u.)
37 | AGGTGTGGCTTTGTGTCCTTGTTTTTCTTATGTGGGAAGTCGGAGTCACCTAGTGCAG | 9060 fluorescence intensity (a.u.)
38 | TGCAATGCCACCGTCAAGTACGCCTCCCGCCGCCTCCGCGCGGAGTCACCTAGTGCAG | 8180 fluorescence intensity (a.u.)
39 | CCTCCAATCTCGCTCCACGAATCGCTGCCTTGGAAACCGACGGAGTCACCTAGTGCAG | 8860 fluorescence intensity (a.u.)
40 | CCGGTACGTTTATCCACTGACCACTGGCATGCACGGCGAGCGGAGTCACCTAGTGCAG | 8810 fluorescence intensity (a.u.)
41 | TCCCGAAACGCCGCCGCCTCCCCTCCTCATCGCTCCGCCTCGGAGTCACCTAGTGCAG | 8500 fluorescence intensity (a.u.)
42 | GACGAGATGTCACAAGTATACTTCTTGCCGTTCAAACTTTCGGAGTCACCTAGTGCAG | 9540 fluorescence intensity (a.u.)
